Source: PMC5960086
No constants are given. Whether binding was seen depends on the method and setting. In cells and extracts the contact can be indirect. Some entries that bind do so weakly or less than the wild type.

By UniProt entry, the sequences of proteins in these tests, tags left out.
UniProt Q7TQN4: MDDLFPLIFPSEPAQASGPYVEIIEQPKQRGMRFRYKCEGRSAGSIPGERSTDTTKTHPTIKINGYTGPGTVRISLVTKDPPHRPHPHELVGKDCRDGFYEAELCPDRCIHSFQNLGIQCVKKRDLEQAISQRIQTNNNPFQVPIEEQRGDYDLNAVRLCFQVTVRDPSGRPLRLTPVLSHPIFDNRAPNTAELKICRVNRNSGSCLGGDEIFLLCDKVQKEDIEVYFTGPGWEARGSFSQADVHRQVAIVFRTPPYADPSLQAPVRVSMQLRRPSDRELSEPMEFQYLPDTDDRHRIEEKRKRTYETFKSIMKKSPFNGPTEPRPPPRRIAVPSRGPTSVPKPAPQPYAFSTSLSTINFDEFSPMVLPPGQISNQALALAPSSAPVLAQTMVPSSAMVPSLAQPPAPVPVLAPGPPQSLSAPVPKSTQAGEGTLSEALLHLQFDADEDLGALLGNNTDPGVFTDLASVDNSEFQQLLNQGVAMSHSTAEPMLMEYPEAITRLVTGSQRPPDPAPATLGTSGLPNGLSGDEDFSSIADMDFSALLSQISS

Target: T1, STAT1 (signal transducer and activator of transcription 1), acetylated (rat (endogenous in spinal cord tissue)) (UniProt Q9QXK0)
T1 sequence (chain, acetylated on lysine (positions not determined in this paper's experiment)): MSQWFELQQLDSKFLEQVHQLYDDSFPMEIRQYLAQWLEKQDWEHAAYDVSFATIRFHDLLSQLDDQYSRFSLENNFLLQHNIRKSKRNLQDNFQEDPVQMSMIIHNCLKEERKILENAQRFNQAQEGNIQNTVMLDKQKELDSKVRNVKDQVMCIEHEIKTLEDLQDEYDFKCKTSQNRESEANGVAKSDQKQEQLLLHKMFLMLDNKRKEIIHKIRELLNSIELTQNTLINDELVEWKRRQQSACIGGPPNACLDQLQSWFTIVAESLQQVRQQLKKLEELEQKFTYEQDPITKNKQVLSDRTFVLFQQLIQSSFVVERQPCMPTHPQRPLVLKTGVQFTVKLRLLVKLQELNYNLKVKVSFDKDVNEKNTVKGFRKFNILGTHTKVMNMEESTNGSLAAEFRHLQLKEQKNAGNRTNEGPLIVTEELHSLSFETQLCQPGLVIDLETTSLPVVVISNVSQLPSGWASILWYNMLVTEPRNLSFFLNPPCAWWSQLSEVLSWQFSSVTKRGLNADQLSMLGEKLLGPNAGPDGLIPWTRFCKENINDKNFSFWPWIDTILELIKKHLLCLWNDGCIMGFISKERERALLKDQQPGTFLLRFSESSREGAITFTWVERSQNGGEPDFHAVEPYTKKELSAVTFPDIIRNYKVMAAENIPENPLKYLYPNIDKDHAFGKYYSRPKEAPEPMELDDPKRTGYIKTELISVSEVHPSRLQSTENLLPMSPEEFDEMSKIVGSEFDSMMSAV
Test: co-IP; rat spinal cord specimens near the lesion epicenter, 7 days after SCI, with or without VPA treatment; 2 h at 4 °C with 1 μg antibody (STAT1 or NF-κB p65), protein A/G agarose beads overnight, washed three times with lysis buffer, Western blot

## NF-κB p65 (from UniProt Q7TQN4 1-550)
  binding: binds
